One substance from patent US11077138B2, “Methods of tissue repair and regeneration” (INNOLIFE CO., LTD., priority 2015, dated 2021) can be followed below.

This data set is described as follows: Copper concentrations in aortic rings after culturing. On the set-up: species or system Sprague Dawley rats. Particulars: 8 days.

Copper sulfide: the “copper concentration in aortic rings” value by setting is: (5 μM added copper) 26 μg/g tissue; (25 μM added copper) 63 μg/g tissue; (50 μM added copper) 106 μg/g tissue; (100 μM added copper) 162 μg/g tissue.
